# Test results published in publication PMC5566180.
# Results are given in words; binding and its absence hold for the method and conditions named. In cells and extracts the contact can be indirect. Some binding calls cover weakened binding; strength is not graded here. Tags and fused reporters may be left off the sequences shown.
# Biological target: T1, LOXL3-flag (murine lysyl oxidase-like 3) (mouse) (UniProt Q9Z175)
# T1 sequence: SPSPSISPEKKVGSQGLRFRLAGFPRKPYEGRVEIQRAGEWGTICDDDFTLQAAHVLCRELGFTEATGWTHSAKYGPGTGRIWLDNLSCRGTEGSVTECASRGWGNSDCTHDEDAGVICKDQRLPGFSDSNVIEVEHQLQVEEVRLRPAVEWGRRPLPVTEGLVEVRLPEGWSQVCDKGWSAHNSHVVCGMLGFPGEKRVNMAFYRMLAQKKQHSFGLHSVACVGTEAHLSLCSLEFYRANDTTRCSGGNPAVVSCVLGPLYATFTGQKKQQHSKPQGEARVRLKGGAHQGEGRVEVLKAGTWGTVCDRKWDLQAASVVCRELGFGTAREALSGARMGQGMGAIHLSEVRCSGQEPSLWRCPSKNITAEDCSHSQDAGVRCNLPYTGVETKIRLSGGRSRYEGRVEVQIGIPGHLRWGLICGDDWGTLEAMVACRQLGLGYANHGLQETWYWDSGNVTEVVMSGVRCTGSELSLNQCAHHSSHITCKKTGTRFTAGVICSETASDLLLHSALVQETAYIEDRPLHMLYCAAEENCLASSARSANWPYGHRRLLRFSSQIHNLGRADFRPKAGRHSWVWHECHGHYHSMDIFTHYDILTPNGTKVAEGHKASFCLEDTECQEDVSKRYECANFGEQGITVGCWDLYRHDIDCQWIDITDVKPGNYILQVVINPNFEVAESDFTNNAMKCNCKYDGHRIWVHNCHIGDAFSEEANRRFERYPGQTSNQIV
# Assay: co-IP; COS7 cells cotransfected; 1 mg lysate (50 mM Tris-HCl pH 7.4-7.5, 300 mM NaCl, 1% Triton X-100) on Anti-FlagM2 affinity gel overnight; Flag-tagged protein as bait; eluted by boiling in SDS lysis buffer, Western blot
binder,measurement,value
"His-tagged full-length murine APMAP_E1 (adipocyte plasma membrane-associated protein) (protein, UniProt Q9D7N9 1-415) MSEADGLRQRRPLRPQVVTDDGQVPEVKEGSSFSGRVFRMTFLMLAVSLAIPLLGAMMLLESPIDPQSFSFKEPPFMFGVLHPNTKLRQAERLFENQLSGPESIVNIGDVLFTGTADGRVVKLENGEIETIARFGSGPCKTRDDEPTCGRPLGIRAGPNGTLFVVDAYKGLFEVNPQKRSVKLLLSSETPIEGKKMSFVNDLTVTRDGRKIYFTDSSSKWQRRDYLLLVMEATDDGRLLEYDTVTKEVKVLLDQLQFPNGVQLSPEEDFVLVAETTMARIRRVYVSGLMKGGADMFVENMPGFPDNIRPSSSGGYWVAAATIRANPGFSMLDFLSDKPFIKRMIFKMFSQETVMKFVPRYSLVLEVSDSGAFRRSLHDPDGQVVTYVSEAHEHDGYLYLGSFRSPFICRLSLQSI",binding,binds
